These are yes or no findings as the source states them, for the method shown. Binding seen in cells or lysates may run through a third protein. Some binding calls cover weakened binding; strength is not graded here. Tags and fused reporters may be left off the sequences shown.
Biological target: T1, B-lymphoma Mo-MLV insertion region (BMI1), HA-tagged (UniProt P25916)
T1 sequence: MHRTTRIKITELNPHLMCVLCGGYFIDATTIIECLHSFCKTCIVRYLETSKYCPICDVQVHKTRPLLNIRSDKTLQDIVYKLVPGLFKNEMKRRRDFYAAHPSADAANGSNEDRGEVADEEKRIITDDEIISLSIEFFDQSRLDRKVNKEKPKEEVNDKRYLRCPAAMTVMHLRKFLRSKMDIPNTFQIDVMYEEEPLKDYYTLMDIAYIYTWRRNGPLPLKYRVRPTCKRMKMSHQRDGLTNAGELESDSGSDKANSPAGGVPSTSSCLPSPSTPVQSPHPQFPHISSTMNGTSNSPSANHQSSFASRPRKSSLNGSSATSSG
Assay: co-IP; NCTC 1469 cells overexpressing His-tagged CBX7 or HA-tagged BMI1 for 24 h; 2.5 mg precleared lysate incubated overnight at 4 °C with 6 μg anti-BMI1 or anti-CBX7; protein G-Sepharose beads; SDS-PAGE and immunoblotting

The chains behind the UniProt entries cited, without tags or fusion partners.
UniProt Q8VDS3: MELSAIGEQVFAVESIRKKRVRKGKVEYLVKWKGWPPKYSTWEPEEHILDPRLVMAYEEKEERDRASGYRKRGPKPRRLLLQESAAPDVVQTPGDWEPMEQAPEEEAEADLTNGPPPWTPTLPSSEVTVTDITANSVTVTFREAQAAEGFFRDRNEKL

binding: binds
Substance: chromobox 7 (CBX7), His-tagged (from UniProt Q8VDS3 1-158)

— publication PMC11094083
